The values that follow come from publication PMC7819943, “Rice protein-binding microarrays: a tool to detect cis-acting elements near promoter regions in rice”.

By UniProt entry, the sequences of proteins in these tests, tags left out.
UniProt Q0JBA9, entry or part of it: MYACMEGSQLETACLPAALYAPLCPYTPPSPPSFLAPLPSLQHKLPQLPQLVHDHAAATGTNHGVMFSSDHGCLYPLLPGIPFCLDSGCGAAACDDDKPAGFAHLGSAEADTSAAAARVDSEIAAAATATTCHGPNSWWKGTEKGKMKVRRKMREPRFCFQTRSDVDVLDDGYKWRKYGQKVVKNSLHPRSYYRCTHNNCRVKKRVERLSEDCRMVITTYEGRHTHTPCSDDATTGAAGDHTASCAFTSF

This is one part of the list.

The assay addresses OsWRKY34 (Oryza sativa, UniProt Q0JBA9 1-250). The assay is described as follows: protein-binding microarray (RPBM); PBS, 2% BSA, 51.3 ng/ul salmon testes DNA, 50 uM zinc acetate, 200 nM TF, 25 C, 1 h; high values mean tight binding. Conditions: protein: recombinant; tags: N-terminal polyhistidine and DsRed monomer fusion (pET32a); label: CyDye5-dUTP incorporated in the synthesized complementary strand; 3' TTTTT single-stranded linker to array surface; dsDNA, one strand shown. In a few lines: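 Transcription factors were made in E. coli BL21-CodonPlus as N-terminal fusions to a polyhistidine tag and DsRed, then purified on Ni–NTA. After primer extension with Cy5-dUTP and blocking with 2% BSA, a custom Agilent array was exposed for 1 h at 25 °C to 200 nM protein in PBS, 2% BSA, salmon testes DNA and 50 µM zinc acetate. Washed arrays were scanned on an Axon 4000B, and the binding signal is per-feature fluorescence intensity in arbitrary units.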
In the case of “CGCCGCCATGGGAGCCGACCTGGACTTCTCGCCGCCGCCGCGGAGTCACCTAGTGCAG”, the binding signal was 8120 fluorescence intensity (a.u.). The value for “GCCTCCACATCCCTCTGCCCATCTCGATCCCCGCCGCGCCCGGAGTCACCTAGTGCAG” was 9630 fluorescence intensity (a.u.); that for “ACTTTCTAGCATTGCCCACATTCTTTTATATATATATATACGGAGTCACCTAGTGCAG” was 12500 fluorescence intensity (a.u.); that for “CTTCGTTTTATATCTCACAATAAAACTTTGCATGGTTGTCCGGAGTCACCTAGTGCAG” was 8500 fluorescence intensity (a.u.). In the case of “AGTCCATCTTAGGCTGTGTTTTTTTTAGGGGTTAATTAAGCGGAGTCACCTAGTGCAG”, the binding signal is 8990 fluorescence intensity (a.u.). Then “TCATGTGAGGTTAGTTGGTGGCATATTGGCAAAAGTCTGTCGGAGTCACCTAGTGCAG”, with 9020 fluorescence intensity (a.u.); and “GGGGAGGTTGCTGCTGCTGCTGGGCGGGTGGGCGGAGGGGCGGAGTCACCTAGTGCAG”, with 28100 fluorescence intensity (a.u.); and “TTTCTGTATCCATCCCGCTCTCTCTCTCTCTCGACGAGAGCGGAGTCACCTAGTGCAG”, with 8480 fluorescence intensity (a.u.). As for “GCCACCCACAAGCGCGACGTAAGCACTCTCAACTCGAATTCGGAGTCACCTAGTGCAG”, the binding signal was 8260 fluorescence intensity (a.u.). As to “ACAGCACCCGGTCTTTGAAAGCTACCACCCGGCGCGCGCGCGGAGTCACCTAGTGCAG”, the binding signal is 8780 fluorescence intensity (a.u.). Then “GCCAGTTATCCGTTATCCACCACGAGGCCCAATTCGAACTCGGAGTCACCTAGTGCAG”, with 9140 fluorescence intensity (a.u.). As for “AGTTTTGAGAGTATATAATTTTGTTTTTTTGTCTCTGTATCGGAGTCACCTAGTGCAG”, the binding signal was 8180 fluorescence intensity (a.u.). Turning to “TTCATCTCCAACGTTTGATCGTTTGTCTTATTTGAATTTTCGGAGTCACCTAGTGCAG”, the binding signal is 8900 fluorescence intensity (a.u.). Take “GCCAACTTCCGCTCGAGTTTATTTTATTTTTCTGAAAAAACGGAGTCACCTAGTGCAG”: the binding signal was 8330 fluorescence intensity (a.u.). With “CTTCCACTGTGTTCCTAATTCCTTCCCTGCAATTATTGGTCGGAGTCACCTAGTGCAG”, the binding signal is 9780 fluorescence intensity (a.u.). Turning to “GCTATCATTTCAGCTGGTTAGCCATGTCGGGCCAGCTCGACGGAGTCACCTAGTGCAG”, the binding signal is 8580 fluorescence intensity (a.u.). The value for “AGGGTATTGCAGCTCTAATTAATTACTCAAGTGTGTGTGCCGGAGTCACCTAGTGCAG” was 8240 fluorescence intensity (a.u.); that for “GTGTATCAGCATCATCGTCGTACTAGTGTCCATTTAATTACGGAGTCACCTAGTGCAG” was 8410 fluorescence intensity (a.u.); that for “CCAATTTGACTCTGATTTTGTCACTCTGCTTATTTGCCCACGGAGTCACCTAGTGCAG” was 9340 fluorescence intensity (a.u.).

With “CCTACCGAGCTGCCGCCGCCTCACGTACGCCAACAACGTTCGGAGTCACCTAGTGCAG”, the binding signal is 9190 fluorescence intensity (a.u.). As for “TCTGCGACGCCGTATCTCTGTCCATCTGTCGTCTTGAAAACGGAGTCACCTAGTGCAG”, the binding signal is 9340 fluorescence intensity (a.u.). The value for “GGAGAGGAGAGGAAAAATTCTACATGTCACATATTACGTCCGGAGTCACCTAGTGCAG” was 8380 fluorescence intensity (a.u.).

As for “ATCTCTTACTCCGCATGCATATGGTCCTGTTCAAAAATGTCGGAGTCACCTAGTGCAG”, the binding signal is 8030 fluorescence intensity (a.u.). Then “GGTTGTAACAACTTGGTATCAGTTGCTTTCGGTCCTGTTTCGGAGTCACCTAGTGCAG”, with 8420 fluorescence intensity (a.u.).

Consider “ACTTCTCTCTCCCATCCTCTCCTGATATTTTAACTTTCACCGGAGTCACCTAGTGCAG”, for which the binding signal is 8940 fluorescence intensity (a.u.). “GTTATATCATATTAGGGGCATTTCTCATAGACAATTGTCACGGAGTCACCTAGTGCAG”: the binding signal is 11200 fluorescence intensity (a.u.). Then “CTCCACTCCAACTCCACCGTTGCTCCCACCAAACCTCCCACGGAGTCACCTAGTGCAG”, with 8550 fluorescence intensity (a.u.); and “GTGGGGATTGGAGTTGGAAAAGTTTTACTTTCACAGTGATCGGAGTCACCTAGTGCAG”, with 8090 fluorescence intensity (a.u.); and “TTTCCAACCTGATCGGGTGCTGCCTTTTCATTCTTCCCTCCGGAGTCACCTAGTGCAG”, with 8430 fluorescence intensity (a.u.). The value for “CTTCGCTGCCAGTCACAACACCCATCTTCGTCGCCGCCCACGGAGTCACCTAGTGCAG” was 8190 fluorescence intensity (a.u.); that for “CTATCAGAATTCAGAGCACTGGGGTTTTGCAACTATTTATCGGAGTCACCTAGTGCAG” was 10600 fluorescence intensity (a.u.). The value for “ACTGGTTTTCTTTTTAATCAACTCTCGTTTCATAAACGGGCGGAGTCACCTAGTGCAG” was 8220 fluorescence intensity (a.u.); that for “GCTCGGTTTGGAGAGGGGTTTTTGGTTTCTCGGCACCACGCGGAGTCACCTAGTGCAG” was 8570 fluorescence intensity (a.u.); that for “CCTTCCATCACCATCTTTGCACATCATCTCTACAGTGCATCGGAGTCACCTAGTGCAG” was 10600 fluorescence intensity (a.u.). As to “ACCGCCTCTCTCTCTATCTCCCCGTCGCTAGCTACCAGCACGGAGTCACCTAGTGCAG”, the binding signal is 8100 fluorescence intensity (a.u.). On to “CTCTCTTCCATTCCGCCTCGCCTCGCCTCGCCTCTCGCGGCGGAGTCACCTAGTGCAG”, for which the binding signal was 8360 fluorescence intensity (a.u.). Then “AGATCCACCCGCACCTGCTCCAAATCGCGCCTCTCTTGTGCGGAGTCACCTAGTGCAG”, with 8800 fluorescence intensity (a.u.); and “TGCGCCATTTTTTCTTTTTCTTTTTCGTTTTGTTTTTTTTCGGAGTCACCTAGTGCAG”, with 16300 fluorescence intensity (a.u.). For “AGTAAGAGATCTCAAATTGATATGGGTTCTTGTTTTATATCGGAGTCACCTAGTGCAG”, the binding signal was 8150 fluorescence intensity (a.u.). The value for “CGCATGCACACTTTAATCTATACCAACGGAAAATTTTCCACGGAGTCACCTAGTGCAG” was 8390 fluorescence intensity (a.u.). For the sequence “AATATTCCTTACTTTTTAATTTCGAATTTCAGCTATTTCTCGGAGTCACCTAGTGCAG”, the binding signal was 10500 fluorescence intensity (a.u.). In the case of “AAGGAGGCGTTATACCCAGTTTTCCGGTTGAGGGATGTTACGGAGTCACCTAGTGCAG”, the binding signal was 10900 fluorescence intensity (a.u.). As to “AATCTTTCTATCGTATAAGCATGTTGCATTTAGTGCACTTCGGAGTCACCTAGTGCAG”, the binding signal was 9800 fluorescence intensity (a.u.).

For the sequence “ATCGGGTGATAGTGCGCAGGGGTGATCAGATTAGGTGGCCCGGAGTCACCTAGTGCAG”, the binding signal was 8240 fluorescence intensity (a.u.). Take “AACTGAAAGTTCATTCTCTGCGCGGTCTGGGTCTACTCCTCGGAGTCACCTAGTGCAG”: the binding signal is 8830 fluorescence intensity (a.u.). Then “CTTAGCCCAACTCAACATTTTGCTGTCTCGCGTTTCCGCGCGGAGTCACCTAGTGCAG”, with 11000 fluorescence intensity (a.u.); and “TCATTCATATACCATCAATGTTTCATTTCCATTTTCCGAACGGAGTCACCTAGTGCAG”, with 10800 fluorescence intensity (a.u.). The value for “TGTTGTCGCTGTTCCCGTGCTGCTCCTGTCTCTCGCAGGGCGGAGTCACCTAGTGCAG” was 9070 fluorescence intensity (a.u.); that for “ATTTCTGCCTCATTGACAAGAAGGGCCCACATCCATCGCACGGAGTCACCTAGTGCAG” was 8440 fluorescence intensity (a.u.); that for “GGGAAATTTAACTATTTGTCACATTTAGGTTTTTCAATTACGGAGTCACCTAGTGCAG” was 8270 fluorescence intensity (a.u.).

As for “TTCTTTTGAGTTTATTTCTCTTATCTGATTCCTATGTTTTCGGAGTCACCTAGTGCAG”, the binding signal is 9990 fluorescence intensity (a.u.). In the case of “TCAACACCACCATCGCCGTCGTGTTCTCCGCGCTCGCTGTCGGAGTCACCTAGTGCAG”, the binding signal is 10100 fluorescence intensity (a.u.). In the case of “TCCGCTTGCATATGGCACAGAAACACACTGACACGCATTCCGGAGTCACCTAGTGCAG”, the binding signal was 9010 fluorescence intensity (a.u.). As for “TCTTTCTCTCTCTTGCTGCCGTTGAGGGATTTGGGGTGAACGGAGTCACCTAGTGCAG”, the binding signal was 10000 fluorescence intensity (a.u.).
